Measurements taken from patent publication US7601352.
No constants are given. Whether binding was seen depends on the method and setting. Some entries that bind do so weakly or less than the wild type.

By UniProt entry, the sequences of proteins in these tests, tags left out. Where a name states a change or a piece, a line headed by the entry shows the natural chain unless it says otherwise. Chains listed by the source or under a name are the forms on record and can include a tag or linker. Residues count along the entry.
UniProt P04629: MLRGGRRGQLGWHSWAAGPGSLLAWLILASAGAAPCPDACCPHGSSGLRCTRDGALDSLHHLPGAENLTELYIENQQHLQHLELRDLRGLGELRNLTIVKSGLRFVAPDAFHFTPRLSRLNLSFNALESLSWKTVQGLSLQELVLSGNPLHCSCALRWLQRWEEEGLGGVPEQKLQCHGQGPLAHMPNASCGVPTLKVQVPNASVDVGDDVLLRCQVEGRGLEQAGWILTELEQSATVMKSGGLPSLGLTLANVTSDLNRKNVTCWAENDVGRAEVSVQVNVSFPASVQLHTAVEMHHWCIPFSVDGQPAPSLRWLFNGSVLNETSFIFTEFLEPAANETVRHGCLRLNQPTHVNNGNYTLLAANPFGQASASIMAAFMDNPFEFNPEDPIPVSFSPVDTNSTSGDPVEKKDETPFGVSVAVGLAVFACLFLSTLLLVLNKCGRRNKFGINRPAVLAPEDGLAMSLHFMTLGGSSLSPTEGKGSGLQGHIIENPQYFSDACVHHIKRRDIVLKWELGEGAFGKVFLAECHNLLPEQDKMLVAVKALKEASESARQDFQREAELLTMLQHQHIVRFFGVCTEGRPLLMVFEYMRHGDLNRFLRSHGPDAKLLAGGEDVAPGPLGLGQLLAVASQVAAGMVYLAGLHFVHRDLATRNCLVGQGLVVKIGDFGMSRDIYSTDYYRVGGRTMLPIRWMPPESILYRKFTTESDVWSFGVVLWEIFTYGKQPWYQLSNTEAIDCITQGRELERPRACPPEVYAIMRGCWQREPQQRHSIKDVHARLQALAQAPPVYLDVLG
human TrkA receptor expressed on Balb/C 3T3 cells: residues 33-796 of P04629
TrkA immunoadhesin (extracellular domain of human TrkA fused to camel IgG2 Fc): residues 33-423 of P04629
UniProt P35739, residues 33-799: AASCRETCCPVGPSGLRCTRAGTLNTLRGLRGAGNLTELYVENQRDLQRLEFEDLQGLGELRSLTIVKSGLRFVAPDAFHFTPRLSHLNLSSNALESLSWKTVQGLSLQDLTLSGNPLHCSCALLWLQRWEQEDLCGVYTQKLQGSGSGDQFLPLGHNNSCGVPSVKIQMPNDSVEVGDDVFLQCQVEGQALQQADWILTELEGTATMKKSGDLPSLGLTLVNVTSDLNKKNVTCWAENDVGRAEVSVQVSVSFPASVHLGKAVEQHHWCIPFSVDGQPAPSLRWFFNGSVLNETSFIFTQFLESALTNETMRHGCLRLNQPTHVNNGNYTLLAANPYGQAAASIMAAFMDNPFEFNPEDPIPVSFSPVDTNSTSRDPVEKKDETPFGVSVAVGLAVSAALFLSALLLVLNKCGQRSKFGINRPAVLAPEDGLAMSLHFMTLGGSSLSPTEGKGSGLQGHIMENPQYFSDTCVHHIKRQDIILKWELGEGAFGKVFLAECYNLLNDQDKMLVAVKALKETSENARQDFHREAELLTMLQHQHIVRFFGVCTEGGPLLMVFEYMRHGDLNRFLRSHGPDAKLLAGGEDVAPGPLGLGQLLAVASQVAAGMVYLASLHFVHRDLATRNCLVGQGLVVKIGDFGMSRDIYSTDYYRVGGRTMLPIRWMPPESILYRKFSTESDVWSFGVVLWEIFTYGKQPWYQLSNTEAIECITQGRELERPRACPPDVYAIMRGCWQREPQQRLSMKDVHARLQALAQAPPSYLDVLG

Key:
[1] = molecular target: TrkA immunoadhesin (extracellular domain of human TrkA fused to camel IgG2 Fc) (human; camel) (UniProt P04629); experiment: ELISA, TrkA-IgG on solid phase, 2 or 20 ng/ml antibody
[2] = molecular target: human TrkA receptor expressed on Balb/C 3T3 cells (human) (UniProt P04629); experiment: FACS on TrkA+ Balb/C 3T3 cells against Balb/C 3T3 cells
[3] = molecular target: rat TrkA receptor (rat) (UniProt P35739); experiment: immunohistochemistry on P10 rat basal forebrain sections
[4] = molecular target: TrkA immunoadhesin (extracellular domain of human TrkA fused to camel IgG2 Fc) (human; camel) (UniProt P04629); experiment: competition ELISA, TrkA immunoadhesin on solid phase, soluble TrkA immunoadhesin as competitor
[5] = molecular target: rat TrkA receptor (rat) (UniProt P35739); experiment: immunohistochemistry on rat basal forebrain sections
[6] = molecular target: human TrkA receptor expressed on Balb/C 3T3 cells (human) (UniProt P04629); experiment: FACS on 3T3 TrkA+ cells; confirmed by immunofluorescence
[7] = molecular target: human TrkA receptor expressed on Balb/C 3T3 cells (human) (UniProt P04629); experiment: inhibition of 125I-NGF binding to TrkA+ Balb/C 3T3 cells

Measured: binding

B1: MNAC13 monoclonal antibody (antibody, V domains shown)
VH: VKLMESGGGLVQPGGSLKLSCAASGFTFSTYTMSWARQTPEKRLEWVAYISKGGGSTYYPDTVKGRFTISRDNAKNTLYLQMSSLKSEDTALYYCARGAMYGNDFFYPMDYWGQGTSVTVSS
VL: DIVLSQSPAIMSASLGEEITLTCSASSSVSYMHWYQQKSGTSPKLLIYTTSNLASGVPSRFSGSGSGTFYSLTISSVEAEDAADYYCHQWSSYPWTFGGGTKLEIKR
binds: [1] | [2] | [3] | [4] | [5] | [6] | [7]
